Data as given in patent US20020102606A1.
These are yes or no findings as the source states them, for the method shown. Some results given as binding are weak or reduced against the parent protein; the word gives no strength.

The chains behind the UniProt entries cited, without tags or fusion partners. Residues count along the entry.
UniProt Q16539, residues 28-360: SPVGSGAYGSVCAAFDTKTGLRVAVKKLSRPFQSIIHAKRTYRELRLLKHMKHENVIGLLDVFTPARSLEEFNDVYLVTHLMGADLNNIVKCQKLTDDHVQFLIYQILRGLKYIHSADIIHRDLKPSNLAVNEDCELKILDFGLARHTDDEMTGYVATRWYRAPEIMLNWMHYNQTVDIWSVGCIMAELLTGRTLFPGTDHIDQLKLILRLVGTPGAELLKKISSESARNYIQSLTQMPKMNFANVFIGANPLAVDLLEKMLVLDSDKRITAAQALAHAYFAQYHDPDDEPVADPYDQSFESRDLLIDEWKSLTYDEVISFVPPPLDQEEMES

Legend:
[1] = target: p38 alpha amino acids 28-360 (bait) (UniProt Q16539); test: yeast two-hybrid
[2] = target: p38 alpha amino acids 28-360 (bait) (UniProt Q16539); test: yeast two-hybrid; prey clone found with the bait of the row

CDSQFYSVQVADSTFTVLKRYQQLKPIGSGAQGIV (enzyme) [JNK2 amino acids 6-40 (prey)]
binding [1]: binds
binding [2]: binds
